This note sets out measurements from article PMC9239103, “System-Wide Analysis of the GATC-Binding Nucleoid-Associated Protein Gbn and Its Impact on Streptomyces Development”.

This series deals with T1, Gbn (SCO1839) (Streptomyces coelicolor A3(2) M145) (UniProt Q9RJ29).
T1 sequence (looked up): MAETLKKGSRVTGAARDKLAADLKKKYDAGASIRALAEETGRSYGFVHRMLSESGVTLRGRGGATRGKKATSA
In words: EMSA. Particulars: binds, with higher half-binding concentration than N1, 5 nM DNA; EMSA: 10 mM Tris-HCl pH 7.9, 0.1 mM EDTA, 50 mM KCl, 30 C 15 min, 5% PAGE, ethidium bromide; recombinant protein; residues 1-73.

A weaker result is weaker than the reference pair of the same experiment. Tags and fusion partners may be left off the protein sequences shown.

Regarding “TCGATGTAGGACACACCTCTTGATGAGGAGATCTCACACAGATGGCGGAT (double strand) [p1839_50Single_weak (+, GATC)]”, the binding result was “binds more weakly”.
